{"source": "PubChem BioAssay AID504793 – Drosophila RNAi Screening Center – 2011", "assay": "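Whole-genome screen for parts of the DNA damage checkpoint at G2/M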 (primary screen)", "system": "Drosophila S2R+ cells", "knock-down reagent": "long dsRNA against Drosophila genes, about 0.25 µg dsRNA per well", "timing": "4 days of dsRNA, then 4 hours of drug before read-out", "conditions": "doxorubicin 0.5 µM for 4 hours to cause double-strand breaks, in cells also given a low, harmless dose of dsRNA against nbs to sensitise the assay", "read-out": "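Mitotic index as the number of phospho-histone H3-positive cells in each well following doxorubicin, given as raw counts without normalisation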", "reading the numbers": "mitotic cells: higher = more cells in mitosis, weaker G2 arrest", "rule for the call": "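Genes are called active only when high mitotic counts were reproduced with independent dsRNAs and mitosis was checked for delay without damage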", "meaning of the calls": "active = confirmed in follow-up tests; inactive = not confirmed", "note": "The deposit covers about 23,000 reagents; shown is a random part of those that have a named target and a result. In the full data, 62 (0.27%) got an active call. 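Calls come from follow-up tests whose scores are not deposited, so confirmed genes may have low counts here; counts are not normalised per plate.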 The raw values are shown without normalisation. Entries without a mark were called inactive."}
{"gene knocked down":"Acn (GeneID 35173)","amplicon":"DRSC02062","mitotic cells, replicate 1":4}
{"gene knocked down":"Acn (GeneID 35173)","amplicon":"DRSC29245","mitotic cells, replicate 1":12}
{"gene knocked down":"CG13361 (GeneID 31019)","amplicon":"DRSC17896","mitotic cells, replicate 1":18}
{"gene knocked down":"CG13361 (GeneID 31019)","amplicon":"DRSC29728","mitotic cells, replicate 1":4}
{"gene knocked down":"mira (GeneID 42379)","amplicon":"DRSC16998","mitotic cells, replicate 1":9}
{"gene knocked down":"mira (GeneID 42379)","amplicon":"DRSC26837","mitotic cells, replicate 1":4}
{"gene knocked down":"CG7567 (GeneID 43479)","amplicon":"DRSC16258","mitotic cells, replicate 1":16}

2 entries already listed, arranged by “mitotic cells, replicate 1”, low to high.
{"gene knocked down":"CG13361 (GeneID 31019)","amplicon":"DRSC29728","mitotic cells, replicate 1":4}
{"gene knocked down":"mira (GeneID 42379)","amplicon":"DRSC16998","mitotic cells, replicate 1":9}

More reagents:
{"gene knocked down":"ODA-Dnal1 (GeneID 35962)","amplicon":"DRSC07270","mitotic cells, replicate 1":6}
{"gene knocked down":"ODA-Dnal1 (GeneID 35962)","amplicon":"DRSC28259","mitotic cells, replicate 1":7}
{"gene knocked down":"betaggt-I (GeneID 33704)","amplicon":"DRSC03494","mitotic cells, replicate 1":5}
{"gene knocked down":"CG13284 (GeneID 35021)","amplicon":"DRSC02256","mitotic cells, replicate 1":5}
{"gene knocked down":"CG4455 (GeneID 34975)","amplicon":"DRSC01983","mitotic cells, replicate 1":16}
{"gene knocked down":"CG4455 (GeneID 34975)","amplicon":"DRSC21684","mitotic cells, replicate 1":9}
{"gene knocked down":"CG13022 (GeneID 39896)","amplicon":"DRSC09902","mitotic cells, replicate 1":1}
